# Experimental data taken from patent US11927589B2, “Carrier peptide fragment for nucleolar localization and use thereof” (TOAGOSEI CO., LTD., priority 2021, dated 2024).
# Some results were stated once for a whole list of compounds, not compound by compound.
# Legend:
# [1] = tested on: HeLa cells; assay: Intracellular localization by confocal laser scanning microscopy (Test 2); format: cell-based, human
# Protocol: In this test, localization of Samples 1 to 5 in HeLa cells was analyzed. HeLa cells were seeded on collagen-coated 8-well slides at about 2×10^4 cells/well, and cultured overnight in the presence of 5% CO2 at 37° C. A 10% FBS-containing DMEM was used as the cell culture solution.
# Then, the supernatant (culture solution) was removed, ice-cooled PBS was added, and washing on ice was performed three times. Then, ice-cooled methanol was added, the sample was left at −20° C. for 10 minutes, and the cells were immobilized. Then, methanol was removed, and washing was then performed three times with ice-cooled PBS. Then, a DAPI-containing encapsulant (commercially available from ThemoFisher Scientific) and a cover glass were used for encapsulation and fluorescence observation was performed under a confocal laser scanning microscope. […] Here, all FIGS. 2A to 2E show images in which fluorescent images of DAPI and FAM were merged.
# [2] = tested on: HeLa cells; assay: Evaluation of cell membrane permeability by flow cytometry (Test 1); settings: conclusion from MFI of the FAM constructs
Substance,"fluorescence of FAM observed in the nucleolus ([1]; 5 μM, 20 hours, methanol-fixed, DAPI/FAM merged images)",nucleolar localization ([1]; conclusion from FIGS. 2A to 2E),cell membrane permeability [2]
"Ac-KKRTLRKKKRKKR-FAM (N-terminal acetyl, C-terminal FAM) [Example 1]",observed in the nucleolus present in the nucleus of the cells in addition to the cytoplasm,–,–
KKRTLRKKKRKKR (N-terminal acetylation) [Peptide 1],–,significantly better nucleolar localization than Peptide 5,better cell membrane permeability than Peptide 5
